In patent US20230035403A1, “Method For Determining Responsiveness To Prostate Cancer Treatment” (Janssen Biotech, Inc., priority 2020, published 2023):
What was measured is the transcript of the gene that encodes the chain shown.

B1: VPFRELKNVSVLEGLRQGRLGGPCSCHCPRPSQARLTPVDVAGPFLCLGDPGLFPPVKSSI (peptide)
chain: VPFRELKNVSVLEGLRQGRLGGPCSCHCPRPSQARLTPVDVAGPFLCLGDPGLFPPVKSSI
B2: VPFRELKNQRTAQGAPGIHHAASPVAANLCDPARHAQHTRIPCGAGQVRAGRGPEAGGGVLQPQRPAPEKPGCPCRRGQPRLHTVKMWRA (peptide)
chain: VPFRELKNQRTAQGAPGIHHAASPVAANLCDPARHAQHTRIPCGAGQVRAGRGPEAGGGVLQPQRPAPEKPGCPCRRGQPRLHTVKMWRA
B3: CHLFLQPQVGTPPPHTASARAPSGPPHPHESCPAGRRPARAAQTCARRQHGLPGCEEAGTARVPSLHLHLHQAALGAGRGRGWGEACAQVPPSRG (peptide)
chain: CHLFLQPQVGTPPPHTASARAPSGPPHPHESCPAGRRPARAAQTCARRQHGLPGCEEAGTARVPSLHLHLHQAALGAGRGRGWGEACAQVPPSRG
B4: WGMELAASRRFSWDHHSAGGPPRVPSVRSGAAQVQPKDPLPLRTLAGCLARTAHLRPGAESLPQPQLHCT (peptide)
chain: WGMELAASRRFSWDHHSAGGPPRVPSVRSGAAQVQPKDPLPLRTLAGCLARTAHLRPGAESLPQPQLHCT
B5: LWFQSSELSPTGAPWPSRRPTWRGTTVSPRTATSSARTCCGTKWPSSQEAALGLGSGLLRFSCGTAAIR (peptide)
chain: LWFQSSELSPTGAPWPSRRPTWRGTTVSPRTATSSARTCCGTKWPSSQEAALGLGSGLLRFSCGTAAIR

Assay: Expression profiling of prostate neoantigens in tumor and normal tissues (qPCR, Fluidigm Biomark)
Parameters: species or system human
Details: for qPCR Relative Average Ct: FFPE prostate cancer samples; for qPCR % Positive FFPE: about 90 FFPE tissue samples from prostate cancer; for qPCR Normal Tissue Expression: panel of normal tissues

| Molecule | qPCR Relative Average Ct | qPCR % Positive FFPE [%] | qPCR Normal Tissue Expression |
| --- | --- | --- | --- |
| B1 | 11.2 | 52.2 | Mammary Gland |
| B2 | 12.1 | 25.6 | None |
| B3 |  | 0.0 | None |
| B4 | 14 | 11 | None |
| B5 |  | 0 | None |
